Source: the supplement of paper PMC3047530
Some of the results follow. Many values rest on one well or one pass, so single values are uncertain.

What follows are compounds tested on Geomyces destructans (assay: growth inhibition relative to DMSO control; higher = stronger growth inhibition). Details: 10 µM; 15 °C; incubation time 10 days.
CC(=O)O[C@H]1C[C@@H](OC(C)=O)C(C)(C)C2C[C@@H](OC(C)=O)[C@]3(C)C(CC[C@@]4(C)[C@H](c5ccoc5)C(=O)[C@H]5O[C@]543)[C@]21C (some centres undefined) was tested, and the growth inhibition was -6.96%.
CCCN(CCC)c1c([N+](=O)[O-])cc(C(F)(F)F)cc1[N+](=O)[O-] showed a growth inhibition of 2.16%.
C=C(C)[C@H]1CN[C@H](C(=O)O)[C@H]1CC(=O)O gave a growth inhibition of -6.12%.
C[C@@H]1CC[C@@]2(OC1)O[C@H]1[C@@H](O)[C@H]3[C@@H]4CC[C@H]5C[C@@H](O[C@@H]6O[C@H](CO)[C@H](O[C@@H]7O[C@H](CO)[C@@H](O)[C@H](O[C@@H]8OC[C@@H](O)[C@H](O)[C@H]8O)[C@H]7O[C@@H]7O[C@H](CO)[C@H](O)[C@H](O[C@@H]8O[C@H](CO)[C@@H](O)[C@H](O)[C@H]8O)[C@H]7O)[C@H](O)[C@H]6O)[C@H](O)C[C@]5(C)[C@H]4CC[C@]3(C)[C@H]1[C@@H]2C gave a growth inhibition of 84.2%.
In the case of CC(C)N(C(=O)CCl)c1ccccc1, the growth inhibition is reported as 19.2%.
COc1cc2c(cc1OC)C(=O)c1ccc(OC)c(OC)c1OCC(=O)C2 was tested, and the growth inhibition was 17.5%.
Cc1cc(O)ccc1Cl was tested, and the growth inhibition was 3.19%.
Work on C=C[C@H]1CN2CC[C@H]1C[C@H]2[C@H](OC(=O)OCC)c1ccnc2ccc(OC)cc12 yielded a growth inhibition of -39.1%.
With CC(C)=CCCC1(C)C=Cc2c(O)c3c(c(CC=C(C)C)c2O1)OC12C(CC4CC1C(C)(C)OC2(C/C=C(/C)C(=O)O)C4O)C3=O (centres undefined) the growth inhibition was -14.9%.
CC[C@H]1CN2CC[C@H]1C[C@@H]2[C@@H](O)c1ccnc2ccc(OC)cc12 showed a growth inhibition of -27.4%.
CC(C)N(CCC(C(N)=O)(c1ccccc1)c1ccccn1)C(C)C (centres undefined) gave a growth inhibition of -6.39%.
In the case of COC(=O)/C(C)=C\CC12OC(C)(C)C3CC(C=C4C(=O)c5c(OC)c6c(c(CC=C(C)C)c5OC431)OC(C)(CCC=C(C)C)C=C6)C2=O (centres undefined), the growth inhibition is reported as -6.9%.
CC[C@@]1(O)C[C@H](O[C@H]2C[C@H](N(C)C)[C@H](O)[C@H](C)O2)c2c(cc3c(c2O)C(=O)c2c(O)cccc2C3=O)[C@H]1C(=O)OC gave a growth inhibition of -25%.
Work on COP(N)(=O)SC (centres undefined) yielded a growth inhibition of -11.7%.
Compound C[C@H](N)[C@H](O)c1ccc(O)c(O)c1 has a growth inhibition of 0.391%.
For N[C@@H](Cc1ccc(N(CCCl)CCCl)cc1)C(=O)O, the growth inhibition was -17.1%.
CCN1C[C@]2(C)CC[C@H](OC)[C@@]34C1[C@]1(OCO[C@@]15C[C@H](OC)[C@H]1C[C@]3(O)[C@@H]5[C@H]1OC)[C@@H](OC(C)=O)[C@H]24 gave a growth inhibition of -23.3%.
CC(C)=CCOc1c2occc2cc2ccc(=O)oc12 showed a growth inhibition of -3.8%.
CNC(=O)O/N=C/C(C)(C)SC was tested, and the growth inhibition was -7.74%.
O=[N+]([O-])c1cc(O)c(O)c([N+](=O)[O-])c1 was tested, and the growth inhibition was -14.1%.
Compound CN1[C@@H]2CC[C@H]1C[C@@H](OC(=O)[C@H](CO)c1ccccc1)C2 has a growth inhibition of -2.36%.
CCOP(=S)(OCC)SCSP(=S)(OCC)OCC gave a growth inhibition of -14.9%.
For ClC1=C(Cl)C2(Cl)C3C(Cl)C(Cl)CC3C1(Cl)C2(Cl)Cl (centres undefined), the growth inhibition was -7.29%.
COc1c2c(c(CC=C(C)C)c3oc(=O)c(-c4ccc(O)cc4)c(O)c13)OC(C)(C)C=C2 was tested, and the growth inhibition was -9.15%.
In the case of CNNC, the growth inhibition is reported as -5.02%.
O=C1C=CC(=O)c2c(O)cccc21 showed a growth inhibition of -16.5%.
CC1(C)C2(Cl)C(Cl)C(Cl)C(Cl)(C(Cl)Cl)C1(Cl)C2Cl (centres undefined) was tested, and the growth inhibition was -1.8%.
For COc1ccc2c(c1)[C@]13CCCC[C@@H]1[C@H](C2)N(C)CC3, the growth inhibition was -2.31%.
With CCC(C)C(=O)c1c(O)c(C)c2oc3c(C)c(O)c(C(=O)C(C)CC)c(O)c3c2c1O (centres undefined) the growth inhibition was -0.0293%.
C[C@H]1O[C@@H](O[C@H]2[C@@H](O)C[C@H](O[C@H]3[C@@H](O)C[C@H](O[C@H]4CC[C@@]5(C)[C@H](CC[C@@H]6[C@@H]5CC[C@]5(C)[C@@H](C7=CC(=O)OC7)[C@@H](O)C[C@]65O)C4)O[C@@H]3C)O[C@@H]2C)C[C@H](O)[C@@H]1O showed a growth inhibition of -3.64%.
With CC1=NCCc2c1[nH]c1cc(O)ccc21 the growth inhibition was -21%.
CSc1nc(NC(C)C)nc(NC(C)C)n1 was tested, and the growth inhibition was -4.7%.
With COc1ccc([C@H]2Oc3c(I)c(OC)cc(OC)c3C[C@@H]2O)cc1OC the growth inhibition was -0.865%.
CC1=CC(=O)C2=C(C)C[C@H](O)[C@@H]3[C@H](OC(=O)[C@H]3C)[C@H]12 showed a growth inhibition of -5.91%.
CNC(=O)ON=C(C)SC gave a growth inhibition of -8.35%.
For COc1cc(OC)c2c(c1)O[C@H](c1ccc(OC)c(OC)c1)[C@@H](O)C2, the growth inhibition was 1.02%.
For OC[C@@H]1CCCN2CCCC[C@H]12, the growth inhibition was -7.06%.
For C1CCc2nnnn2CC1, the growth inhibition was -13.7%.
C=C[C@H]1CN2CC[C@H]1C[C@@H]2[C@@H](O)c1ccnc2ccccc12 showed a growth inhibition of -6.89%.
CC(Cc1ccc(O)cc1)NCC(O)c1cc(O)cc(O)c1 (centres undefined) gave a growth inhibition of -6.39%.
In the case of CC(C)CC(N(C)C)C1(c2ccc(Cl)cc2)CCC1 (centres undefined), the growth inhibition is reported as -25.1%.
With COc1ccc(CC2c3cc(OC)c(OC)cc3CCN2C)cc1OC (centres undefined) the growth inhibition was -5.63%.
Work on N#C/C(=C\c1cccc(O)c1)C(=O)O [alpha-CYANO-3-HYDROXYCINNAMIC ACID] yielded a growth inhibition of -24.9%.
With O=C([O-])c1ccccc1-c1c2cc(Br)c(=O)cc-2oc2[c]([Hg+])c([O-])c(Br)cc12.[Na+].[Na+].[OH-] the growth inhibition was 70.1%.
O=c1[nH]c2ccccc2n1CCCN1CCC(n2c(=O)[nH]c3cc(Cl)ccc32)CC1 showed a growth inhibition of -8.52%.
For CC(=O)O[C@@H]1C[C@@]2(C)[C@H](c3ccoc3)C[C@H]3O[C@]32[C@]2(C)C(=O)C(O)=C3C(C)(C)C(=O)C=C[C@]3(C)[C@@H]12, the growth inhibition was -25%.
For COP(=S)(OC)Oc1ccc(SC)c(C)c1, the growth inhibition was -10.2%.
For COP(=S)(OC)SCn1nnc2ccccc2c1=O, the growth inhibition was -20.4%.
C#C[C@]1(O)CC[C@H]2[C@@H]3CCC4=CC(=O)CC[C@]4(C)[C@H]3CC[C@@]21C gave a growth inhibition of -12.5%.
Work on CC(C)[N+](C)(CCC(C(N)=O)(c1ccccc1)c1ccccc1)C(C)C yielded a growth inhibition of 2.38%.
COC(=O)COc1ccc(Cl)cc1Cl showed a growth inhibition of -7.9%.
For C[C@]12CC[C@H]3[C@@H](CC[C@]4(O)C[C@@H](O)CC[C@]34C=O)[C@@]1(O)CC[C@@H]2C1=CC(=O)OC1, the growth inhibition was 6.3%.
With NC(N)=NOCC[C@H](N)C(=O)O the growth inhibition was -13.7%.
Compound C[C@]12CC[C@H](O)C[C@@H]1CC[C@@H]1[C@@H]2CC[C@]2(C)[C@@H](O)CC[C@@H]12 [5alpha-ANDROSTAN-3beta,17beta-DIOL] has a growth inhibition of 2.34%.
CC[C@H](C)[C@H]1O[C@]2(C=C[C@@H]1C)C[C@@H]1C[C@@H](C/C=C(\C)[C@@H](O[C@H]3C[C@H](OC)[C@@H](O[C@H]4C[C@H](OC)[C@@H](O)[C@H](C)O4)[C@H](C)O3)[C@@H](C)/C=C/C=C3\CO[C@@H]4[C@H](O)C(C)=C[C@@H](C(=O)O1)[C@]34O)O2.CO[C@H]1C[C@H](O[C@H]2[C@H](C)O[C@@H](O[C@@H]3/C(C)=C/C[C@@H]4C[C@@H](C[C@]5(C=C[C@H](C)[C@@H](C(C)C)O5)O4)OC(=O)[C@@H]4C=C(C)[C@@H](O)[C@H]5OC/C(=C\C=C\[C@@H]3C)[C@]54O)C[C@@H]2OC)O[C@@H](C)[C@@H]1O showed a growth inhibition of -4.76%.
With COc1cc([C@@H]2c3cc4c(cc3[C@H](OC(C)=O)[C@H]3COC(=O)[C@H]23)OCO4)cc(OC)c1OC the growth inhibition was -3.15%.
For O=C(O)CNCP(=O)(O)O, the growth inhibition was -3.93%.
CCCCOC(=O)c1ccccc1C(=O)OCc1ccccc1 gave a growth inhibition of 9.93%.
CC[C@@]1(O)C[C@H](O)c2c(cc3c(c2O)C(=O)c2c(O)ccc(O)c2C3=O)[C@H]1C(=O)OC gave a growth inhibition of -8.7%.
In the case of O=C(O)CCCc1ccc(N(CCCl)CCCl)cc1, the growth inhibition is reported as -3.41%.
With COc1ccc(C(=O)N2CCCC2=O)cc1 the growth inhibition was -5.91%.
Compound COc1nc(NC(C)C)nc(NC(C)C)n1 has a growth inhibition of -8.96%.
Work on NCCc1cccc(O)c1 yielded a growth inhibition of -14.9%.
In the case of Oc1noc2c1CCNC2, the growth inhibition is reported as -9.36%.
Work on Cc1c(O)c(C(=O)CC(C)C)c2oc3c(C(=O)CC(C)C)c(O)c(C)c(O)c3c2c1O yielded a growth inhibition of -12.6%.
CCCC(C)C1(CC)C(=O)NC(=S)NC1=O (centres undefined) gave a growth inhibition of -14.9%.
For COc1cc([C@@H]2c3cc4c(cc3[C@H](O)[C@H]3COC(=O)[C@@H]23)OCO4)cc(OC)c1OC, the growth inhibition was 10.5%.
Work on ClC1=C(Cl)C2(Cl)C3C(Cl)C=CC3C1(Cl)C2(Cl)Cl (centres undefined) yielded a growth inhibition of -3.63%.
Work on CC(=O)C1=C(O)[C@@H]2[C@H]3c4c[nH]c5cccc(c45)C[C@H]3C(C)(C)N2C1=O yielded a growth inhibition of -12.9%.
For N#Cc1c(Cl)cccc1Cl, the growth inhibition was -8.2%.
CC(C)=CC1C(C(=O)OCc2cccc(Oc3ccccc3)c2)C1(C)C (centres undefined) showed a growth inhibition of 9.02%.
In the case of C[CH2][Hg][S]c1ccccc1C(=O)[O-].[Na+], the growth inhibition is reported as 90.1%.
Compound CC1(C)C(=O)C=C[C@]2(C)[C@H]3CC[C@@]4(C)[C@H](c5ccoc5)OC(=O)[C@H]5O[C@]54[C@]3(C)[C@H](O)C[C@@H]12 has a growth inhibition of 1.89%.
Compound COc1c2c(cc3c1OCO3)[C@]13C=C[C@H](OC)C[C@H]1N(C2)C[C@@H]3O has a growth inhibition of -9.49%.
For CC[C@@]1(O)C(=O)OCc2c1cc1n(c2=O)Cc2cc3ccccc3nc2-1, the growth inhibition was -3%.
O=C1C[C@@H]2OCC=C3CN4CC[C@]56c7ccccc7N1[C@H]5[C@H]2[C@H]3C[C@H]46 gave a growth inhibition of -17.9%.
COc1ccc2c(c1OC)C(=O)OC2[C@H]1c2cc3c(cc2CCN1C)OCO3 (stereo in doubt) gave a growth inhibition of -30.4%.
In the case of CC1(C)C(=O)C=CC2(C)C3CCC4(C)C(c5ccoc5)CC5OC54C3C(O)CC12 (centres undefined), the growth inhibition is reported as -12.6%.
C#CCOS(=O)OC1CCCCC1Oc1ccc(C(C)(C)C)cc1 (centres undefined) gave a growth inhibition of -5.76%.
In the case of CC(C)=CCC[C@]1(C)C=Cc2c(O)c3c(c(CC=C(C)C)c2O1)O[C@]12C(=C[C@@H]4C[C@H]1C(C)(C)O[C@@]2(C/C=C(/C)C(=O)O)C4=O)C3=O, the growth inhibition is reported as -6.59%.
C[C@]12CCC3C(CC[C@H]4C[C@H](OS(=O)(=O)O)CC[C@]34C)C1CCC2=O (some centres undefined) gave a growth inhibition of -22.3%.
With C=C(C)c1cc2cc(C(C)=O)c(O)cc2o1 the growth inhibition was -23.3%.
For CC(C)OC(=O)Nc1cccc(Cl)c1, the growth inhibition was -8.35%.
Compound CN1C[C@H](C(=O)N[C@]2(C)O[C@@]3(O)[C@@H]4CCCN4C(=O)[C@H](Cc4ccccc4)N3C2=O)C[C@@H]2c3cccc4[nH]cc(c34)C[C@H]21 has a growth inhibition of -0.422%.
